No constants are given. Whether binding was seen depends on the method and setting. In cells and extracts the contact can be indirect. Binding can be weak; no strength is given. Tags and fused reporters may be left off the sequences shown.
Target: T1, 3-O-sulfotransferase-5 tagged with GFP (3OST5-GFP) (UniProt Q8IZT8)
T1 sequence: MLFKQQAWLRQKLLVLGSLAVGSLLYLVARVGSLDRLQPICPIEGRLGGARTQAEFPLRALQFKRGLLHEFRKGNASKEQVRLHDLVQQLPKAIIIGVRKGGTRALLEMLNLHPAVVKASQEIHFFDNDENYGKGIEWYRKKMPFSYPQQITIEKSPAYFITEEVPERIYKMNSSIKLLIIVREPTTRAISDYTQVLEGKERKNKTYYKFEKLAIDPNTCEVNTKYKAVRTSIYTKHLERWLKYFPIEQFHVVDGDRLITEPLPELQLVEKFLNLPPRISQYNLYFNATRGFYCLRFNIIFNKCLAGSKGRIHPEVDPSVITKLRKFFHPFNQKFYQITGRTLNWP
Experiment: co-IP; EC-3OST5 cell lysate (IP buffer: 150 mM NaCl, 50 mM Tris-HCl pH 7.5, 1% NP-40, 2 mM EDTA) precipitated with anti-GFP polyclonal antibody on protein G Plus-agarose, 18 h at 4 °C; Western blot with anti-GOLPH3

binding: binds
Substance: Golgi phosphoprotein 3 (GOLPH3)

Reference: paper PMC12062774
